Some of these results come from one statement about several compounds together.
What was measured:
Assay type in all cases: in vivo
[1] = tested on: Spodoptera littoralis (Egyptian cotton leafworm); experiment: Spodoptera littoralis leaf disc spray test; settings: 200 ppm sprayed on cotton leaf discs; 5 L1 larvae; mortality, feeding behaviour, growth regulation 3 DAT
[2] = tested on: Tetranychus urticae (Two-spotted spider mite); experiment: Tetranychus urticae bean leaf disc spray test; settings: 200 ppm sprayed on bean leaf discs; mite populations of mixed ages; egg, larval and adult mortality 8 days later
[3] = tested on: Plutella xylostella (Diamond back moth); experiment: Plutella xylostella larval test on artificial diet; settings: 200 ppm (concentration in well 18 ppm) on artificial diet; L2 larvae; larval mortality, growth regulation after 6 days
[4] = tested on: Heliothis virescens (Tobacco budworm); experiment: Heliothis virescens egg test on artificial diet; settings: 200 ppm (concentration in well 18 pm) by pipetting; eggs 0 to 24 h old on artificial diet; egg mortality, larval mortality, growth regulation after 4 days
[5] = tested on: Diabrotica balteata (Corn root worm); experiment: Diabrotica balteata larval test on artificial diet; settings: 200 ppm (concentration in well 18 ppm) on artificial diet; L2 larvae; larval mortality, growth regulation after 5 days
[6] = tested on: Thrips tabaci (Onion thrips); experiment: Thrips tabaci sunflower leaf disc spray test; settings: 200 ppm sprayed on sunflower leaf discs; population of mixed ages; mortality after 7 days

Cn1nc(C(F)(F)C(F)(F)F)c(C(F)(F)F)c1-n1cc(-c2ccc(C#N)c(NC(=O)Cc3ccccc3)c2)nn1 [Compound A3]
at least 80%: control of Spodoptera littoralis [1] | control of Tetranychus urticae [2] | control of Plutella xylostella [3] | control of Heliothis virescens [4] | control of Diabrotica balteata [5]

Cn1nc(C(F)(F)C(F)(F)F)c(C(F)(F)F)c1-n1cc(-c2cccc(NC(=O)Cc3ccccc3)c2)nn1 [Compound A6]
at least 80%: control of Spodoptera littoralis [1] | control of Tetranychus urticae [2] | control of Plutella xylostella [3] | control of Diabrotica balteata [5]

Cn1nc(C(F)(F)C(F)(F)F)c(C(F)(F)F)c1-n1cc(-c2cccc(NC(=O)c3ccc(C#N)cc3)c2)nn1 [Compound A10]
at least 80%: control of Thrips tabaci [6] | control of Spodoptera littoralis [1] | control of Plutella xylostella [3] | control of Heliothis virescens [4] | control of Diabrotica balteata [5]

Cn1nc(C(F)(F)C(F)(F)F)c(C(F)(F)F)c1-n1cc(-c2cccc(NC(=O)c3ccc([N+](=O)[O-])cc3)c2)nn1 [Compound A11]
at least 80%: control of Thrips tabaci [6] | control of Spodoptera littoralis [1] | control of Heliothis virescens [4] | control of Diabrotica balteata [5]

Cn1nc(C(F)(F)C(F)(F)F)c(C(F)(F)F)c1-n1cc(-c2cccc(NC(=O)c3ccc(F)cc3)c2)nn1 [Compound A23]
at least 80%: control of Thrips tabaci [6] | control of Spodoptera littoralis [1] | control of Plutella xylostella [3] | control of Heliothis virescens [4] | control of Diabrotica balteata [5]

Cn1nc(C(F)(F)C(F)(F)F)c(C(F)(F)F)c1-n1cc(-c2cccc(NC(=O)c3ccc(F)cc3Cl)c2)nn1 [Compound A25]
at least 80%: control of Thrips tabaci [6] | control of Spodoptera littoralis [1] | control of Plutella xylostella [3] | control of Heliothis virescens [4]

Cc1ccccc1C(=O)Nc1cc(-c2cn(-c3c(C(F)(F)F)c(C(F)(F)C(F)(F)F)nn3C)nn2)ccc1C#N [Compound A31]
at least 80%: control of Spodoptera littoralis [1] | control of Tetranychus urticae [2] | control of Plutella xylostella [3] | control of Heliothis virescens [4]

Cn1nc(C(F)(F)C(F)(F)F)c(C(F)(F)F)c1-n1cc(-c2ccc(C#N)c(NC(=O)c3ccc(C#N)cc3)c2)nn1 [Compound A33]
at least 80%: control of Thrips tabaci [6] | control of Spodoptera littoralis [1] | control of Plutella xylostella [3] | control of Heliothis virescens [4] | control of Diabrotica balteata [5]

Cn1nc(C(F)(F)C(F)(F)F)c(C(F)(F)F)c1-n1cc(-c2ccc(C#N)c(NC(=O)c3ccc([N+](=O)[O-])cc3)c2)nn1 [Compound A34]
at least 80%: control of Thrips tabaci [6] | control of Spodoptera littoralis [1] | control of Plutella xylostella [3] | control of Heliothis virescens [4] | control of Diabrotica balteata [5]

Cc1cc(F)ccc1C(=O)Nc1cc(-c2cn(-c3c(C(F)(F)F)c(C(F)(F)C(F)(F)F)nn3C)nn2)ccc1C#N [Compound A36]
at least 80%: control of Thrips tabaci [6] | control of Spodoptera littoralis [1] | control of Plutella xylostella [3] | control of Heliothis virescens [4]

Cn1nc(C(F)(F)C(F)(F)F)c(C(F)(F)F)c1-n1cc(-c2ccc(C#N)c(NC(=O)c3ccc(OC(F)(F)F)cc3)c2)nn1 [Compound A40]
at least 80%: control of Thrips tabaci [6] | control of Spodoptera littoralis [1] | control of Plutella xylostella [3] | control of Heliothis virescens [4] | control of Diabrotica balteata [5]

Cn1nc(C(F)(F)C(F)(F)F)c(C(F)(F)F)c1-n1cc(-c2ccc(C#N)c(NC(=O)c3cccc(F)c3F)c2)nn1 [Compound A50]
at least 80%: control of Thrips tabaci [6] | control of Spodoptera littoralis [1] | control of Plutella xylostella [3] | control of Heliothis virescens [4]

Cn1nc(C(F)(F)C(F)(F)F)c(C(F)(F)F)c1-n1cc(-c2ccc(Cl)c(NC(=O)c3ccc(C#N)cc3)c2)nn1 [Compound A56]
at least 80%: control of Thrips tabaci [6] | control of Spodoptera littoralis [1] | control of Plutella xylostella [3] | control of Heliothis virescens [4] | control of Diabrotica balteata [5]

Cn1nc(C(F)(F)C(F)(F)F)c(C(F)(F)F)c1-n1cc(-c2ccc(C#N)c(NC(=O)C(C)(C)CCl)c2)nn1 [Compound A81]
at least 80%: control of Tetranychus urticae [2] | control of Diabrotica balteata [5]

Cn1nc(C(F)(F)C(F)(F)F)c(C(F)(F)F)c1-n1cc(-c2ccc(C#N)c(NC(=O)c3ccc(Cl)nc3)c2)nn1 [Compound A84]
at least 80%: control of Thrips tabaci [6] | control of Spodoptera littoralis [1] | control of Plutella xylostella [3] | control of Diabrotica balteata [5]

CSc1ccc(C(=O)Nc2cc(-c3cn(-c4c(C(F)(F)F)c(C(F)(F)C(F)(F)F)nn4C)nn3)ccc2C#N)cc1 [Compound A86]
at least 80%: control of Thrips tabaci [6] | control of Spodoptera littoralis [1] | control of Tetranychus urticae [2] | control of Plutella xylostella [3] | control of Heliothis virescens [4]

Cn1nc(C(F)(F)C(F)(F)F)c(C(F)(F)F)c1-n1cc(-c2ccc(C#N)c(NC(=O)c3ccc4nonc4c3)c2)nn1 [Compound A90]
at least 80%: control of Spodoptera littoralis [1] | control of Tetranychus urticae [2] | control of Plutella xylostella [3] | control of Heliothis virescens [4]

CSCCC(=O)Nc1cc(-c2cn(-c3c(C(F)(F)F)c(C(F)(F)C(F)(F)F)nn3C)nn2)ccc1C#N [Compound A100]
at least 80%: control of Thrips tabaci [6] | control of Tetranychus urticae [2]

Cn1nc(C(F)(F)C(F)(F)F)c(C(F)(F)F)c1-n1cc(-c2ccc(C#N)c(NC(=O)c3ccc(Cl)cc3Cl)c2)nn1 [Compound A109]
at least 80%: control of Tetranychus urticae [2] | control of Diabrotica balteata [5]

Cn1nc(C(F)(F)C(F)(F)F)c(C(F)(F)F)c1-n1cc(-c2ccc(C#N)c(NC(=O)C3CCCCC3)c2)nn1 [Compound A110]
at least 80%: control of Tetranychus urticae [2]

Cn1nc(C(F)(F)C(F)(F)F)c(C(F)(F)F)c1-n1cc(-c2ccc(C#N)c(NC(=O)c3cc(F)cc(F)c3)c2)nn1 [Compound A112]
at least 80%: control of Thrips tabaci [6] | control of Spodoptera littoralis [1] | control of Plutella xylostella [3] | control of Heliothis virescens [4] | control of Diabrotica balteata [5]

Cn1nc(C(F)(F)C(F)(F)F)c(C(F)(F)F)c1-n1cc(-c2ccc(C#N)c(NC(=O)Cc3ccc(F)cc3)c2)nn1 [Compound A115]
at least 80%: control of Spodoptera littoralis [1] | control of Tetranychus urticae [2] | control of Heliothis virescens [4] | control of Diabrotica balteata [5]

Cn1nc(C(F)(F)C(F)(F)F)c(C(F)(F)F)c1-n1cc(-c2ccc(C#N)c(NC(=O)c3cccs3)c2)nn1 [Compound A124]
at least 80%: control of Thrips tabaci [6] | control of Spodoptera littoralis [1] | control of Tetranychus urticae [2] | control of Diabrotica balteata [5]

Cc1cc([N+](=O)[O-])ccc1C(=O)Nc1cccc(-c2cn(-c3c(C(F)(F)F)c(C(F)(F)C(F)(F)F)nn3C)nn2)c1F [Compound A129]
at least 80%: control of Spodoptera littoralis [1] | control of Tetranychus urticae [2] | control of Plutella xylostella [3] | control of Heliothis virescens [4] | control of Diabrotica balteata [5]

Cn1nc(C(F)(F)C(F)(F)F)c(C(F)(F)F)c1-n1cc(-c2cccc(NC(=O)c3ccc(F)cc3)c2F)nn1 [Compound A134]
at least 80%: control of Thrips tabaci [6] | control of Spodoptera littoralis [1] | control of Plutella xylostella [3] | control of Heliothis virescens [4] | control of Diabrotica balteata [5]

Cn1nc(C(F)(F)C(F)(F)F)c(C(F)(F)F)c1-n1cc(-c2cccc(NC(=O)c3cccnc3)c2F)nn1 [Compound A136]
at least 80%: control of Spodoptera littoralis [1] | control of Tetranychus urticae [2] | control of Plutella xylostella [3] | control of Heliothis virescens [4] | control of Diabrotica balteata [5]

COc1c(NC(=O)c2ccc(C#N)cc2Cl)cccc1-c1cn(-c2c(C(F)(F)F)c(C(F)(F)C(F)(F)F)nn2C)nn1 [Compound A145]
at least 80%: control of Spodoptera littoralis [1] | control of Tetranychus urticae [2] | control of Plutella xylostella [3] | control of Heliothis virescens [4] | control of Diabrotica balteata [5]

COc1c(-c2cn(-c3c(C(F)(F)F)c(C(F)(F)C(F)(F)F)nn3C)nn2)cccc1N(C)C(=O)c1ccc([N+](=O)[O-])cc1 [Compound B7]
at least 80%: control of Spodoptera littoralis [1] | control of Tetranychus urticae [2] | control of Plutella xylostella [3] | control of Heliothis virescens [4] | control of Diabrotica balteata [5]
